This data set concerns the target T1, R150A Rad9A 94-266 (Homo sapiens) (UniProt Q99638).
T1 sequence (looked up): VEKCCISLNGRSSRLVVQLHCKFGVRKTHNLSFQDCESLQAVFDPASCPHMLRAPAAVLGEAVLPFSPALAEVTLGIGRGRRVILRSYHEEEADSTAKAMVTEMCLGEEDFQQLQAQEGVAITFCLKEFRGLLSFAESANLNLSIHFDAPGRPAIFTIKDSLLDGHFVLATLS
The experiment in a line: EMSA. To be noted: protein likely insoluble (DLS PDI 44%); EMSA: 20 mM Tris-HCl pH 7.6, 80 mM NaCl, 1 mM DTT, 1 mM EDTA, 1.5% glycerol, 200 ng/ml poly dI/dC, 50 ug/ml BSA, 10 nM DNA; 6% native PAGE in 50 mM Tris-borate pH 8.3; recombinant protein; residues 94-266; protein details: His; label: 5'-fluorescein (6-carboxyfluorescein) on HC40. In general terms: In EMSA bound probe runs differently from free probe, usually more slowly.

No signal at the amounts used counts as a negative. Where a protein sequence is shown, tags need not be part of it.

Turning to “CCGAGGAATTCGCCTTCTGCTCCATAGCCACTGGTTGTAG (double strand) [HC40/HG40]”, the binding result is listed as “no binding”.

The values are drawn from PMC9359528, “DNA binding by the Rad9A subunit of the Rad9-Rad1-Hus1 complex”.
